Results are given in words; binding and its absence hold for the method and conditions named. Tags and fused reporters may be left off the sequences shown.

Assay in all cases: ReLo
In experiment [1] the target is T1, SoYb (Drosophila), Q9VL52.
T1 chain: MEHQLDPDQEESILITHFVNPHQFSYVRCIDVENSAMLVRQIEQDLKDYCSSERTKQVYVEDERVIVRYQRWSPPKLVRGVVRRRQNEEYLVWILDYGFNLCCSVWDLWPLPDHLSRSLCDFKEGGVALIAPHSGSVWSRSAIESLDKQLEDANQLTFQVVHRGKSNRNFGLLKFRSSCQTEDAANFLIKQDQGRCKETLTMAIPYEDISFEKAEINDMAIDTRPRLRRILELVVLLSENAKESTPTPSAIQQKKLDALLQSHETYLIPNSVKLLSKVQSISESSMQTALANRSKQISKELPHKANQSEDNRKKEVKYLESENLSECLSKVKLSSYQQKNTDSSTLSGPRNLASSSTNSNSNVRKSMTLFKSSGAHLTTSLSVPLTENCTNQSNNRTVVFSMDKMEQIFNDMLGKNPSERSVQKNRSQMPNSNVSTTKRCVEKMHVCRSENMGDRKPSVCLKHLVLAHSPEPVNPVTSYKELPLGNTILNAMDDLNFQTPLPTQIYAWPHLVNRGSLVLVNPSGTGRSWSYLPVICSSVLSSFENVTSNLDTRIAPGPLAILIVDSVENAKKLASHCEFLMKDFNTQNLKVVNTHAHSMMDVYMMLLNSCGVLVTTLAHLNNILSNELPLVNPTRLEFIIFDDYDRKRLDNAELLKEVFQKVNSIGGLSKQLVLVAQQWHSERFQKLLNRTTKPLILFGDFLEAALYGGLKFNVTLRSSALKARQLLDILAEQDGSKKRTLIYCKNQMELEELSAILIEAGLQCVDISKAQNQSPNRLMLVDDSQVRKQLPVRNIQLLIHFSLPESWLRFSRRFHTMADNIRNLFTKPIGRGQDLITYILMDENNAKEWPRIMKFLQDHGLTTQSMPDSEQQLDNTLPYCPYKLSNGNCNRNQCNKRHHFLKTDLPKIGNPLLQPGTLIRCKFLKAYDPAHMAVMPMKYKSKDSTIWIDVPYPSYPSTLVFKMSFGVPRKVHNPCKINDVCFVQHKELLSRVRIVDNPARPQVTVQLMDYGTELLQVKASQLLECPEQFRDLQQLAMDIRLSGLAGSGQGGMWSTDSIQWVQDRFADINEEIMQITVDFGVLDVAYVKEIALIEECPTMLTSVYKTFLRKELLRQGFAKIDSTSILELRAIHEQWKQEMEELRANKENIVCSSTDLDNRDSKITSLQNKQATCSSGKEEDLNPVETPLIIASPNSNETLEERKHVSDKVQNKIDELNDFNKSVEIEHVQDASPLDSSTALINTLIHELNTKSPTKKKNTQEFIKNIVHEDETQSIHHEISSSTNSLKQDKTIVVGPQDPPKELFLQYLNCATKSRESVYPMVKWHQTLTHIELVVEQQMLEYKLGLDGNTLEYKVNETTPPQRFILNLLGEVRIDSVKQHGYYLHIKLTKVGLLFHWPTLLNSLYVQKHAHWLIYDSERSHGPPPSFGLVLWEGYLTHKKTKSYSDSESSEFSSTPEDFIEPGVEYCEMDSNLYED
As to conditions: remark: other sources report otherwise.

For experiment [2], the target named is T2, Argonaute 3 (Drosophila), Q7PLK0.
T2 chain: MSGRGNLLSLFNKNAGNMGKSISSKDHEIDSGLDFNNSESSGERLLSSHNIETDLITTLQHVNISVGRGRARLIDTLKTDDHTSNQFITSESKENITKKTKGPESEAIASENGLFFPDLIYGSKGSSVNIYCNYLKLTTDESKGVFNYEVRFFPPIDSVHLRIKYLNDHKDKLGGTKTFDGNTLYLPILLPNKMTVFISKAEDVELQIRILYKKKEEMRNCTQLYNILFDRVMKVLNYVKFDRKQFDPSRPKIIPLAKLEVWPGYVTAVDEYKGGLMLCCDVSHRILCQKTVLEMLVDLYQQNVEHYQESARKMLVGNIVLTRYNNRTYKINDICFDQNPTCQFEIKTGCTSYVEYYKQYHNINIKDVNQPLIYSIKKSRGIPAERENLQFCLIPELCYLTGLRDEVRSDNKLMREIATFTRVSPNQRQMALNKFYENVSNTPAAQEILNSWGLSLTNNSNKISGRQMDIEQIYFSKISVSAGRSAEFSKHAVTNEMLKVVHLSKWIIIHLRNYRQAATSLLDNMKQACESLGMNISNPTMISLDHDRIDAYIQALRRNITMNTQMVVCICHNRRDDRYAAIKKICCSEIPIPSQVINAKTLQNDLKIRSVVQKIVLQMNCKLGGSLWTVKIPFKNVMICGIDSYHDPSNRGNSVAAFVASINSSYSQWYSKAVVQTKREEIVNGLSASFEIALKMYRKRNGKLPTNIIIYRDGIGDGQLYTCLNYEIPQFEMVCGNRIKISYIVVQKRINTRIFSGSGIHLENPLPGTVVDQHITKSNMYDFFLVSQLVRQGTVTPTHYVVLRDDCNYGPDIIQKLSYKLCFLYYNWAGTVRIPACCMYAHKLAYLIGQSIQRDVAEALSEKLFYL
As to conditions: remark: other sources report otherwise.

Experiment [3] addresses T3, Piwi (Drosophila), Q9VKM1.
T3 chain: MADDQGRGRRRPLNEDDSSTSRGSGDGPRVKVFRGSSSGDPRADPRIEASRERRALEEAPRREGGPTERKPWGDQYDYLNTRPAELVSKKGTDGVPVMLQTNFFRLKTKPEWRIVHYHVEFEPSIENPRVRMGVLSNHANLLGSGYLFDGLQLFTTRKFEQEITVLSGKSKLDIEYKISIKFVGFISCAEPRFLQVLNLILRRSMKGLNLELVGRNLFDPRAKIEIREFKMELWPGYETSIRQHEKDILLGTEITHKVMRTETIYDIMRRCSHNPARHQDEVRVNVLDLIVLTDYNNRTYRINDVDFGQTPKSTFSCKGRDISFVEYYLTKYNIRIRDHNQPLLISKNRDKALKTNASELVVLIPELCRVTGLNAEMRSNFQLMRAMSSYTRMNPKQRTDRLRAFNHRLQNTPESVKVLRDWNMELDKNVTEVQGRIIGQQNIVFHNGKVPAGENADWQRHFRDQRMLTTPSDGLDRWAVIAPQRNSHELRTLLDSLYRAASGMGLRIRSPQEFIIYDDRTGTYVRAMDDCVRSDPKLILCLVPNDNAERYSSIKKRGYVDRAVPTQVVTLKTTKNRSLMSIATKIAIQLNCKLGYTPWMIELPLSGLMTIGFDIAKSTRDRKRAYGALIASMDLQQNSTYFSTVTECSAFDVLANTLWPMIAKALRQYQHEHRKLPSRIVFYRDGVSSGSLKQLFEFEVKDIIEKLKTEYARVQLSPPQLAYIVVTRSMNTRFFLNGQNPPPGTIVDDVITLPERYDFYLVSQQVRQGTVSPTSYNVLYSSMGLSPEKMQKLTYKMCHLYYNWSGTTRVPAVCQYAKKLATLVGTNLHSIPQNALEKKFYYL
As to conditions: remark: other sources report otherwise.

The next experiment has as its target T4, Vreteno (Drosophila) (UniProt Q9VCU7).
T4 sequence: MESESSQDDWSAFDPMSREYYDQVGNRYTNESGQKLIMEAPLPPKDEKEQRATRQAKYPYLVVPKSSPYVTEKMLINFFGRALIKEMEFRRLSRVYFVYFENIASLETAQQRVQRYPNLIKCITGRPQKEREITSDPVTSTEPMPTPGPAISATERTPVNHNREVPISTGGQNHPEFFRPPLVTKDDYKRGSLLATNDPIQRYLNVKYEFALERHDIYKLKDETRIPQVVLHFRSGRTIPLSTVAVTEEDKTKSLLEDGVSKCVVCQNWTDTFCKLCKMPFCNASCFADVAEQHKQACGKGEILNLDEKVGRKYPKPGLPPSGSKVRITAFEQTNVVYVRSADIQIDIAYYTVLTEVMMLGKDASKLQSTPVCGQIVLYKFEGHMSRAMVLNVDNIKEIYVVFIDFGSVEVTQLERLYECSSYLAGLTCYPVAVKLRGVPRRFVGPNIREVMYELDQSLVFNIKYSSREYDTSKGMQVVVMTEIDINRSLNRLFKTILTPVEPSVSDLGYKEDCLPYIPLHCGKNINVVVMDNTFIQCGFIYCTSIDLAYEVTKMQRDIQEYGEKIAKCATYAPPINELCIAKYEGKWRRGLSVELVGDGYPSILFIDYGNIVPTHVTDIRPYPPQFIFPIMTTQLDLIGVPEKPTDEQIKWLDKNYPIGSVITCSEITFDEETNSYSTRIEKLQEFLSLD

B1: Armitage, Q6J5K9 1-1188 (protein)
chain: MFTYVSKFFTNPDRNREDILESLDRENSFLDQKLMEEKMDQQLKANPNEINGVLSNKIAELTHGLSEMDVSKESSCTARKGVITSLDGDRGVIDKDVLFETKVAEDIILDLHVGCVVEYLTFTTGEAMRVVKVKSILEHSWEDTSQKEIEKAVDNLKNEKPTFFNTETRSVLGLISQRLASSIDVETEYGQLTVELDNIEMNFIPTNGDRVRLECNIQLDDGFVDKQGEILEVTKLFPTRIQEGEKCIVERVYVHMVVLGPETYILKTDLPTGTDLHLGDIVLADLIECQYSKFTRRAIKITPLEKNFGATKLTQQSSMGSSGSGKAVTVTGVNRFITAELWQKESVSLKLTNNLNRTLRLESITVCNDSESQLSVVSPLESKEISSGSEITVTFEIHTQFLGEAIEKYVLNFDLLKVRRVFTVIVCKTKEEVAEAEKRMIAAEALMAPGRNSQERSRFYANQVWCNKVDVIPGQQIVTKRRFVALRLGCFEVPKELRQICLTSERRQEMIKAIEQHYSFLTEPLSIKTYMHRFRLLLHLEEIECFVNFRNYDRDRAHFLRDGEFLTLQIENLAERRPSLVIGDTLRVINPWSDPDSQTTKSYEGIIHKVLFDRILLKFHSSFQEKYNGEDYRLEFYFSRYSFRKQHHAISKIVGVMGEDFLFPSKVTKRENPQLDVYMKDDDMYLYDSKLEWYNQSLNSIQKRAVFNILRGEAENIPYVLFGPPGSGKTMTLIETLLQLVRNLPGARILVGTPSNSSADLVTKRLIDSKALLQGDFIRLVSYNQVEKDLIPPEIMSYCATSDVGAVGSCEDKMMVTESGLKLRCQAKFIGTHRITISTCTTLGNFLQLGFPAGHFTHVLFDEAGQCTEPETMVPIVMLTKKRSQVVLSGDPRQLQSIVTSRIASKMGFSISFLERLLERSPYRKDLQRFPESSGYNPLVLTKLLYNYRALPSIMSIYSRLFYDDELIPVLSEKDSRESRLLSKLRCVFESEKDIPQAHGTFFYGIIGENRQNNDSPSWFNPQEVREVFLMTIALYRANVTADQIGIITPYQKQVKMLRSMFIGTDVVMPKIGSVEEFQGQERDIILISTVRSSEEILRMDARFSLGFVRCSKRLNVAVSRARAMMIIFGNPHLLAVDECWRQLILFCVKNNAYFGCDLPQMVINQKDEVPVCLETFVPSLNTTDDLN
Take B1: the binding result in experiment [1], in experiment [2] and in experiment [3] was “no binding” in each case.

B2: Armitage (protein, UniProt Q6J5K9 1-1188)
chain: B1 chain
For the molecule B2, the binding entry with Vreteno (Drosophila) is recorded as “no binding”.

For the origin of these results see paper doi:10.1101/2024.05.31.596839.
